Test results taken from article PMC4593031, “Azobenzene Modified Imidacloprid Derivatives as Photoswitchable Insecticides: Steering Molecular Activity in a Controllable Manner” (Scientific Reports, 2015).

System: house fly brain nAChR
Experiment: nAChR binding in vitro, competitive inhibition of [3H]NMI binding
Parameters: species or system Musca domestica
Settings: nonirradiated vs irradiated
Procedure: Tritium labeled nitromethylene analogue of IMI ([^3H]NMI) is a unique reporter for monitoring nAChR binding not only in vitro but also in vivo due to its extremely high binding potency. Here, the in vitro interaction of AMIs with house fly brain nAChR was measured by competitive inhibition of [^3H]NMI binding (Table 2). Photoisomers of AMI-1, 2, 5, and 6 had very poor ability to displacing [^3H]NMI binding (IC50 > 2000 nM) leading to difficulty for difference judgement. […] A 4-fold difference was achieved on AMI-4 and 10 upon photoirradiation. Compounds AMI-9 or AMI-10 have some similarities with the bis-IMI derivatives disclosed by Kagabu et al.[49][50][51]. […]
House fly heads were collected after the fly adults frozen with liquid nitrogen were broken into body parts. […] The reaction mixture was filtered through Whatman GF/B glass-fiber filters prewetted by binding buffer using a Brandel M-24R Harvester (Gaithersburg, MD) to quantitate the bound [^3H]NMI, followed by two rinses each with binding buffer (5 mL) and final liquid scintillation. Nonspecific binding was determined with unlabeled NMI (20 μM). […] The percentage inhibition was determined from two (compounds AMI-1, AMI-2, AMI-5, AMI-6 and azobenzene whose activities were extremely low) or three separate experiments each with triplicate samples. […]

Row | Compound | difference in [3H]NMI binding IC50 upon photoirradiation
1 | O=[N+]([O-])/N=C1/N(Cc2ccc(/N=N/c3ccccc3)cc2)CCN1Cc1ccc(Cl)nc1 [AMI-4] | 4 fold
2 | O=[N+]([O-])N=C1N(Cc2ccc(N=Nc3ccc(CN4CCN(Cc5ccc(Cl)nc5)C4=N[N+](=O)[O-])cc3)cc2)CCN1Cc1ccc(Cl)nc1 [AMI-10] | 4 fold
